Measured values as given in the supplement of paper PMC10735217.
Structures can show the parent of a compound that is named as a salt. The list shows a part of the results. This data set is noisy: repeats of one test often differ as much as different tests do.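 Human kidney-derived cells stably carry a construct in which eight TEAD-binding elements drive luciferase, measured by luminescence in a drug-repurposing library screen. A hit is any compound whose signal exceeds the plate mean by more than five robust Z scores.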

System: HEK293A TEAD-LUC reporter
Test: TEAD-luciferase reporter activity (YAP activation), robust Z score vs plate; higher = stronger YAP/TEAD activation
Conditions: 24 h

Structure (SMILES)	TEAD-luciferase reporter activity (compound concentration: 200 nM)	TEAD-luciferase reporter activity (compound concentration: 2 uM)	TEAD-luciferase reporter activity (compound concentration: 10 uM)
O=C(O)Cn1c(-c2cccc(Cl)c2)nc2ccc(OCCCN3CCCCC3)cc2c1=O	inactive: 1.83	inactive: -1.04	inactive: 2.8
O=C(/C=C/c1ccc(O)c(O)c1)O[C@@H]1C[C@](O)(C(=O)O)C[C@@H](O)[C@H]1O	inactive: -0.089	inactive: 0.42	active: 7.69
CCc1ccccc1CN1CCCCC12Cc1ccccc1CNC2=O (configuration not stated)	inactive: 1.22	–	inactive: 1.1
OC[C@H]1O[C@@H](O)[C@H](O)[C@@H](O)[C@@H]1O	inactive: -0.958	inactive: 1.21	inactive: 0.993
C=CCN1C(=O)C(CC(C)C)NC1=S (configuration not stated)	–	inactive: -2	–
C=CCN1C(=O)C(CC(C)C)NC1=S (configuration not stated) [Albutoin]	inactive: -0.72	–	inactive: -0.882
CC(O)(P(=O)(O)O)P(=O)(O)O [Etidronate]	inactive: -1.69	–	inactive: 0.00506
CC(O)(P(=O)(O)O)P(=O)(O)O [Etidronic acid]	–	inactive: 0.225	–
Cc1cc(N2CCC[C@@H](N)C2)c2c(n1)n(C)c(=O)n2Cc1ccccc1C#N [Imigliptin dihydrochloride]	inactive: -1.04	inactive: 4.18	inactive: 1.05
CCOc1ncc(C)c2c1[C@H](c1ccc(C#N)cc1OC)C(C(N)=O)=C(C)N2 [Finere]	inactive: -0.39	inactive: 0.0704	inactive: 4.22
CC(NCCc1ccc(OCC(=O)O)cc1)C(O)c1ccc(O)cc1 (configuration not stated)	inactive: -1.62	inactive: 0.668	inactive: -0.559
O=C(O)COC/C=C/CN1CCN(C(c2ccc(F)cc2)c2ccc(F)cc2)CC1	inactive: -2.2	inactive: -2	inactive: -1.3
NC(=O)c1cnc2n1CCc1ccccc1C21CCNCC1 [Vapitadine hydrochloride]	inactive: -1.39	inactive: -0.101	inactive: 0.154
CN[C@@H]1CCN(c2cc(NC3(C)CC3)nc(N)n2)C1	inactive: -1.42	inactive: 0.262	inactive: -1.31
Nc1ccc(C(=O)NCC(=O)O)cc1	inactive: -0.567	inactive: 1.79	inactive: 0.383
CCNC(=O)NS(=O)(=O)c1sc(CC(C)C)cc1-c1ccc(Cn2c(-c3ccccc3)nc(OC)c2C=O)cc1	inactive: -1.59	inactive: -0.835	inactive: 0.939
CC(C)(c1ccc(O)cc1)c1ccc(OCc2cccc(COc3ccc(C(=N)N)cc3)c2)cc1	inactive: -1.18	inactive: -0.0107	inactive: 2.24
O=c1[nH]c(=O)n([C@@H]2O[C@H](CO)[C@@H](O)[C@H]2O)cc1F	inactive: -0.219	inactive: -1.09	inactive: 0.887
CSc1cc2c(cc1C(F)(F)F)N(C(=O)Nc1cccnc1)CC2	inactive: 0.228	inactive: -2.05	inactive: -1
CC[C@]12CN3CCc4c([nH]c5ccccc45)[C@@](C(=O)OC)(c4cc5c(cc4OC)N(C)[C@H]4[C@@](O)(C(=O)OC)[C@H](OC(C)=O)[C@]6(CC)C=CCN7CC[C@]54[C@@H]76)C[C@H](C3)[C@H]1O2	inactive: -1.5	inactive: -0.727	inactive: 0.422

Structure (SMILES)	TEAD-luciferase reporter activity (compound concentration: 200 nM)	TEAD-luciferase reporter activity (compound concentration: 2 uM)	TEAD-luciferase reporter activity (compound concentration: 10 uM)
COC(=O)N1CC2(CC2)C[C@H](C(=O)NO)[C@H]1C(=O)N1CCN(c2ccccc2)CC1 [Aderbasib]	inactive: 0.362	inactive: 0.636	inactive: 3.08
CN1CCN2c3ccccc3Cn3cccc3C2C1 (configuration not stated)	inactive: 0.665	inactive: 0.226	inactive: 3.27
COc1cccc(-c2nc(SC)nc3sc(C(=O)NC(C)(C)C)c(N)c23)c1	inactive: -0.518	inactive: 1.6	inactive: -0.921
O=C(O)c1cc(NCCc2ccc(C(F)(F)F)cc2)ccc1O	inactive: 2.31	inactive: -1.35	inactive: 1.42
O=c1c(-c2ccccc2)c1-c1ccccc1 [Diphenylcycloprope]	–	inactive: -0.853	–
O=c1c(-c2ccccc2)c1-c1ccccc1 [diphenylcycloprope]	inactive: -0.442	–	inactive: 1.28
CC(C)=CCC/C(C)=C/CC/C(C)=C/CSc1ccccc1C(=O)O [salirasib]	inactive: -0.903	inactive: -1.24	inactive: -0.105
CC(C)N1CCN(Cc2cnc(-c3cc(-c4cccc5[nH]ccc45)cc4[nH]ncc34)o2)CC1	inactive: -0.862	inactive: 0.109	inactive: -2.29
Nc1nc(F)nc2c1ncn2[C@@H]1O[C@H](COP(=O)(O)O)[C@@H](O)[C@@H]1O [fludarabine phosphate, EryDel]	inactive: -0.364	inactive: -0.61	inactive: -0.252
CN1C(=O)/C(=C2/C(=O)Nc3ccccc32)c2ccccc21 [Meisoindigo]	inactive: -1.05	inactive: -0.563	inactive: -0.26
CC(C)(C)c1cc(C2CCCCC2)ccc1OC(=O)c1cccnc1	inactive: -2.74	inactive: -0.136	inactive: -0.523
C[C@]12CC[C@H](O)C=C1CC[C@H]1[C@@H]2CC[C@@]2(C)C=CC[C@@H]12 [Aloradine]	inactive: 0.0155	inactive: 2.6	inactive: -0.318
CC/C(=C(/C#N)c1ccc(OCCN(CC)CC)cc1)c1ccc(Cl)cc1	inactive: -1.36	inactive: -0.499	inactive: 1.65
CCCCCOc1ccnc(CSc2nc3ccccc3[nH]2)c1C	inactive: -0.827	inactive: -0.951	inactive: -0.257
COC(=O)Nc1nc2cc(Sc3ccccc3)ccc2[nH]1	inactive: 2.67	inactive: 4.72	inactive: 3.04
O=C([O-])CCCCCCCNC(=O)c1ccccc1O	inactive: -0.143	inactive: -0.909	inactive: -0.687
CCN(CC)CCOC(=O)C(c1ccccc1)C1CCCCC1 (configuration not stated)	inactive: -0.578	inactive: 3.91	inactive: 1.93
CN(C)CCC=C1c2ccccc2COc2ccc(CC(=O)O)cc21 [olopatadine]	inactive: -0.607	inactive: 0.858	inactive: 0.401
CS(=O)(=O)c1ccc(Oc2cc(F)cc(C#N)c2)c2c1[C@H](O)C(F)(F)C2	inactive: 0.00636	inactive: -0.251	inactive: 1.99
O=C(/C=C/c1ccc(O)c2c1[C@H](C(=O)OC(Cc1ccc(O)c(O)c1)C(=O)O)C(c1ccc(O)c(O)c1)O2)O[C@@H](Cc1ccc(O)c(O)c1)C(=O)O (some centres not stated) [Salvianolic acid B]	inactive: -3.48	inactive: -1.61	inactive: -0.366

Structure (SMILES)	TEAD-luciferase reporter activity (compound concentration: 200 nM)	TEAD-luciferase reporter activity (compound concentration: 2 uM)	TEAD-luciferase reporter activity (compound concentration: 10 uM)
CCCOc1ccc2[nH]c(NC(=O)OC)nc2c1 [Oxibendazole]	inactive: 4.52	inactive: 1.54	inactive: 1.82
CCCC(NC(C)C(=O)N1C(C(=O)O)CC2CCCCC21)C(=O)O (configuration not stated) [Perindoprilat]	inactive: 2.33	inactive: -1.47	inactive: -1.39
O/N=C/Nc1ccc(N2CCOCC2)c(Cl)c1 [TS-011, Captisol]	inactive: -1.5	–	inactive: -1.04
O/N=C/Nc1ccc(N2CCOCC2)c(Cl)c1	–	inactive: -0.24	–
Cc1nc2ccccn2c(=O)c1CCN1CCC(C(=O)c2ccc(F)cc2)CC1	inactive: 1.09	inactive: 1.23	inactive: 0.161
Cc1cc(=O)oc2ccc(NC(=O)C(=O)O)cc12	inactive: 1.21	inactive: -0.527	inactive: 1.7
CCCCCCCCCCCCCCCC(=O)OC/C=C(C)/C=C/C=C(C)/C=C/C1=C(C)CCCC1(C)C [Retinol palmitate]	–	inactive: -1.35	–
CCCCCCCCCCCCCCCC(=O)OC/C=C(C)/C=C/C=C(C)/C=C/C1=C(C)CCCC1(C)C	inactive: -1.33	–	inactive: 0.51
COc1cccc2c1C(=O)c1c(O)c3c(c(O)c1C2=O)C[C@@](O)(C(C=O)NNC(=O)CCCCCN1C(=O)C=CC1=O)C[C@@H]3O[C@H]1C[C@H](N)[C@H](O)[C@H](C)O1 (some centres not stated)	inactive: -0.776	inactive: 1.16	inactive: -0.624
CC(C(=O)O)c1ccc2oc(-c3ccc(F)cc3)nc2c1 (configuration not stated)	inactive: -1.73	inactive: -2.01	inactive: -2.55
CN(CCCNCc1ccc2c(c1)OCO2)c1nc(-n2ccnc2)ns1	inactive: -1.56	inactive: -0.608	inactive: 2.72
CC(C)(CO)NCC(O)c1ccccc1 (configuration not stated) [fepradinol]	inactive: 2.23	inactive: -2.08	inactive: -0.563
CCN(Cc1ccncc1)C(=O)C(CO)c1ccccc1 (configuration not stated)	inactive: 0.0817	–	inactive: 0.868
CCN(Cc1ccncc1)C(=O)C(CO)c1ccccc1 (configuration not stated) [tropicamide]	–	inactive: -0.537	–
COc1cc(O)c2c(=O)oc(C(C)C(=O)O)cc2c1 (configuration not stated)	inactive: 0.658	inactive: -0.171	inactive: -1.43
C[C@H]1[C@@H](OC(=O)CCC(=O)O)O[C@@H]2OC3(C)CC[C@H]4[C@H](C)CC[C@@H]1[C@@]24OO3 [artesunate, rectal]	–	inactive: -0.827	–
C[C@H]1[C@@H](OC(=O)CCC(=O)O)O[C@@H]2OC3(C)CC[C@H]4[C@H](C)CC[C@@H]1[C@@]24OO3 [artesunate, rectal, MMV]	inactive: -0.121	–	inactive: 1.88
NC(=O)c1ccc2nc(-c3ccc(C4(N)CCC4)cc3)c(-c3ccccc3)n2n1	inactive: -0.872	inactive: 2.14	inactive: 1.33

2 records drawn at random from the list so far:
Structure (SMILES)	TEAD-luciferase reporter activity (compound concentration: 200 nM)	TEAD-luciferase reporter activity (compound concentration: 2 uM)	TEAD-luciferase reporter activity (compound concentration: 10 uM)
COc1cc(O)c2c(=O)oc(C(C)C(=O)O)cc2c1 (configuration not stated)	inactive: 0.658	inactive: -0.171	inactive: -1.43
O/N=C/Nc1ccc(N2CCOCC2)c(Cl)c1	–	inactive: -0.24	–
